In this test the test system is mice with sepsis shock induced by 75 mg/kg endotoxin. Kind of test: Survival of mice with sepsis shock induced by 75 mg/kg endotoxin. It counts as in vivo. The conditions noted are these: 10 mice per group, endotoxin group 6 died. As for the experimental part: The model of septic shock in mice was induced by intraperitoneal injection of a toxic dose of 75 mg/kg endotoxin. […] The model of sepsis shock in mice was induced by intraperitoneal injection of a total lethal dose of 150 mg/kg endotoxin. […] Mice injected intraperitoneally with placebo in place of endotoxin were used as a normal control group.
The model of sepsis shock in mice was induced with 75 mg/kg endotoxin.

These results are taken from patent US20190022104A1 (priority 2016, published 2019).

For `CN1[C@@H]2CC[C@H]1C[C@@H](OC(=O)C(CO)c1ccccc1)C2` (stereo partly shown) [atropine], the “number of mice died” value amounted to 3.
